Data reported in patent publication US20180355044A1.
These are yes or no findings as the source states them, for the method shown. Some binding calls cover weakened binding; strength is not graded here. For part of these data: Sequences can lack the tags named with a protein.

T1: CLL-1 bearing a His Tag
T1 sequence: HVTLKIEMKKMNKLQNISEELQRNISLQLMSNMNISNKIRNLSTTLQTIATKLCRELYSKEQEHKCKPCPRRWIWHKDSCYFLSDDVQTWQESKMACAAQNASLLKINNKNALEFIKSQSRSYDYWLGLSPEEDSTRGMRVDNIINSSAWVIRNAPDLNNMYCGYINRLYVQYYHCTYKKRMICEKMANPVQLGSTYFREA

T2: cynomolgus CLL-1 on cynomolgus PBMC
T2 sequence: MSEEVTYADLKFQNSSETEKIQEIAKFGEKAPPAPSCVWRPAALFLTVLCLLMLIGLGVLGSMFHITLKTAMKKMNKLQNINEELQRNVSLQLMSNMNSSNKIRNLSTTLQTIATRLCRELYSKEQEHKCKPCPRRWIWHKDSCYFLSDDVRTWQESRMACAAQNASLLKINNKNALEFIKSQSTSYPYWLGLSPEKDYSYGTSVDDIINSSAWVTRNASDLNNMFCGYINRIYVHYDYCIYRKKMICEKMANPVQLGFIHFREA


How the values were obtained:
CLL-1 bearing a His Tag [1] = target: T1, CLL-1 bearing a His Tag; experiment: ELISA on His-tagged CLL-1, purified antibody
CLL-1 bearing a His Tag [2] = target: T1, CLL-1 bearing a His Tag; experiment: competitive ELISA on His-tagged CLL-1; binding of mouse M31 is detected, the named antibody is the competitor
CLL-1 bearing a His Tag [3] = target: T1, CLL-1 bearing a His Tag; experiment: ELISA on His-tagged CLL-1, transiently expressed antibody
[4] = target: T2, cynomolgus CLL-1 on cynomolgus PBMC; experiment: flow cytometry on pooled cynomolgus PBMC gated for lineage markers
[5] = substrate: T3, C type Lectin Like molecule 1 (CLL-1), human, on cells (human) (UniProt Q5QGZ9); experiment: flow cytometry on 293 cells expressing CLL-1, goat anti-human FITC
T3 sequence (looked up): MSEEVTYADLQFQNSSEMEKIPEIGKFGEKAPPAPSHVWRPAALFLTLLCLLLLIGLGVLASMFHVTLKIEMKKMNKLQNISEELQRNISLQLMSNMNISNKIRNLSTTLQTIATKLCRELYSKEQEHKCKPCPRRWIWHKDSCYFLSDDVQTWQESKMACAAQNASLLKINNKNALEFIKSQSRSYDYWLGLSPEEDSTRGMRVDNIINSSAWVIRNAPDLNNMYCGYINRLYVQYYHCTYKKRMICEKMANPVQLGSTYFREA

[6] = substrate: T3, ; experiment: flow cytometry, goat anti-human FITC, MFI minus isotype HuIgG1; CLL-1-expressing AML cell line, panel without title (HL-60 by the order of the legend); signal nearly lost in the lower panel (knockout cells)
[7] = substrate: T3, ; experiment: flow cytometry, goat anti-human FITC, MFI minus isotype HuIgG1; CLL-1-expressing AML cell line, panel without title (OCI-AML-5 by the order of the legend); signal nearly lost in the lower panel (knockout cells)

Binder | binding (CLL-1 bearing a His Tag [3]) | binding [6] | binding [7] | other results
HuM31-VH4/VL2 (antibody, V domains shown) VH: QVQLVQSGAEVKKPGASVKVSCKASGYTFTSYVMHWVRQAPGRRLEWIGYINPYNDGTKYNEKFKGRVTITSDTSASTAYMELSSLRSEDTAVYYCARPIYFDNDYFDYWGQGTLVTVSS VL: DIVMTQSPDSLAVSLGERATINCRASESVDSYGNSFMHWYQQKPGQPPKLLIYLASNLESGVPARFSGSGSGTDFTLTIDPVEADDAATYYCQQNNYDPWTFGGGTKLEIK | binds |  |  | binding (CLL-1 bearing a His Tag [1]): binds; binding (CLL-1 bearing a His Tag [2]): binds
M31 (antibody, V domains shown) VH: EVQLQQSGPELVKPGASVKMSCKASGYTFTSYVMHWVKQKPGQGLEWIGYINPYNDGTKYNEKFKGKATLTSDTSSSTAYMELNSLTSEDSAVYFCARPIYFDNDYFDYWGQGTTLKVSS VL: TIVLTQSPASLAVSLGQRATISCRASESVDSYGNSFMHWYQQKPGQPPKLLIYLASNLESGVPARFSGSGSRTDFTLTIDPVEADDAATYYCQQNNYDPWTFGGGTKLEIK |  |  |  | binding [4]: binds
M31-ChVH/HuVL1 (antibody, V domains shown) VH: EVQLQQSGPELVKPGASVKMSCKASGYTFTSYVMHWVKQKPGQGLEWIGYINPYNDGTKYNEKFKGKATLTSDTSSSTAYMELNSLTSEDSAVYFCARPIYFDNDYFDYWGQGTTLKVSS VL: DIVMTQSPDSLAVSLGERATINCRASESVDSYGNSFMHWYQQKPGQPPKLLIYLASNLESGVPDRFSGSGSRTDFTLTIDPVEADDAATYYCQQNNYDPWTFGGGTKLEIK | binds |  |  | 
HuM31-VH2/VL2 (antibody, V domains shown) VH: QVQLVQSGAEVKKPGASVKVSCKASGYTFTSYVMHWVRQAPGQRLEWIGYINPYNDGTKYNEKFKGRATLTSDTSTSTAYMELRSLRSDDTAVYYCARPIYFDNDYFDYWGQGTTVTVSS VL: DIVMTQSPDSLAVSLGERATINCRASESVDSYGNSFMHWYQQKPGQPPKLLIYLASNLESGVPARFSGSGSGTDFTLTIDPVEADDAATYYCQQNNYDPWTFGGGTKLEIK | binds |  |  | binding (CLL-1 bearing a His Tag [1]): binds; binding (CLL-1 bearing a His Tag [2]): binds
M31-ChVH/HuVL2 (antibody, V domains shown) VH: EVQLQQSGPELVKPGASVKMSCKASGYTFTSYVMHWVKQKPGQGLEWIGYINPYNDGTKYNEKFKGKATLTSDTSSSTAYMELNSLTSEDSAVYFCARPIYFDNDYFDYWGQGTTLKVSS VL: DIVMTQSPDSLAVSLGERATINCRASESVDSYGNSFMHWYQQKPGQPPKLLIYLASNLESGVPARFSGSGSGTDFTLTIDPVEADDAATYYCQQNNYDPWTFGGGTKLEIK | binds |  |  | 
HuM31-VH1/VL2 (antibody, V domains shown) VH: QVQLVQSGAEVKKPGASVKVSCKASGYTFTSYVMHWVRQAPGQRLEWIGYINPYNDGTKYNEKFKGKATLTSDTSTSTAYMELRSLRSDDTAVYYCARPIYFDNDYFDYWGQGTTVTVSS VL: DIVMTQSPDSLAVSLGERATINCRASESVDSYGNSFMHWYQQKPGQPPKLLIYLASNLESGVPARFSGSGSGTDFTLTIDPVEADDAATYYCQQNNYDPWTFGGGTKLEIK | binds |  |  | 
HuM31-VH3/VL2 (antibody, V domains shown) VH: QVQLVQSGAEVKKPGASVKVSCKASGYTFTSYVMHWVRQAPGRRLEWIGYINPYNDGTKYNEKFKGKATITSDTSASTAYMELSSLRSEDTAVYYCARPIYFDNDYFDYWGQGTLVTVSS VL: DIVMTQSPDSLAVSLGERATINCRASESVDSYGNSFMHWYQQKPGQPPKLLIYLASNLESGVPARFSGSGSGTDFTLTIDPVEADDAATYYCQQNNYDPWTFGGGTKLEIK | binds |  |  | binding (CLL-1 bearing a His Tag [1]): binds; binding (CLL-1 bearing a His Tag [2]): binds
VH4A+L4DR (antibody, V domains shown) VH: EVQLVQSGAEVKKPGASVKMSCKASGYTFTSYFIHWVRQAPGQGLEWIGFINPYNDGSKYAQKFQGRATLTSDKSTSTVYMELSSLRSEDTAVYYCTRDDGYYGYAMDYWGQGTLVTVSS VL: DIQMTQSPSSLSASVGDRVTLTCRATQELSGYLSWLQQKPGKAIKRLIYAASTLDSGVPSRFSGNRAGTDYTLTISSLQPEDFATYYCLQYAIYPYTFGQGTKLEIK |  | binds | binds | binding [5]: binds
VH4A+L4 (antibody, V domains shown) VH: EVQLVQSGAEVKKPGASVKMSCKASGYTFTSYFIHWVRQAPGQGLEWIGFINPYNDGSKYAQKFQGRATLTSDKSTSTVYMELSSLRSEDTAVYYCTRDDGYYGYAMDYWGQGTLVTVSS VL: DIQMTQSPSSLSASVGDRVTLTCRATQELSGYLSWLQQKPGKAIKRLIYAASTLDSGVPSRFSGSGSGTDYTLTISSLQPEDFATYYCLQYAIYPYTFGQGTKLEIK |  |  |  | binding [5]: binds
VH4A+ChiM26LC (antibody, V domains shown) VH: EVQLVQSGAEVKKPGASVKMSCKASGYTFTSYFIHWVRQAPGQGLEWIGFINPYNDGSKYAQKFQGRATLTSDKSTSTVYMELSSLRSEDTAVYYCTRDDGYYGYAMDYWGQGTLVTVSS VL: DIQMTQSPSSLSASLGERVSLTCRATQELSGYLSWLQQKPDGTIKRLIYAASTLDSGVPKRFSGNRSGSDYSLTISSLESEDFADYYCLQYAIYPYTFGGGTKLEIK |  | binds | binds | 
ChiM26HC+LC (antibody, V domains shown) VH: EVQLQQSGPELVKPGASVKMSCKASGYTFTSYFIHWVKQKPGQGLEWIGFINPYNDGSKYNEKFKGKATLTSDKSSSTAYMELSSLTSEDSAVYYCTRDDGYYGYAMDYWGQGTLVTVSS VL: DIQMTQSPSSLSASLGERVSLTCRATQELSGYLSWLQQKPDGTIKRLIYAASTLDSGVPKRFSGNRSGSDYSLTISSLESEDFADYYCLQYAIYPYTFGGGTKLEIK |  | binds | binds | 

Now from value to binder, other results behind:

binding (CLL-1 bearing a His Tag [3]) | binding [6] | binding [7] | Binder | other results
binds |  |  | ChM31 (antibody, V domains shown) VH: EVQLQQSGPELVKPGASVKMSCKASGYTFTSYVMHWVKQKPGQGLEWIGYINPYNDGTKYNEKFKGKATLTSDTSSSTAYMELNSLTSEDSAVYFCARPIYFDNDYFDYWGQGTTLKVSS VL: TIVLTQSPASLAVSLGQRATISCRASESVDSYGNSFMHWYQQKPGQPPKLLIYLASNLESGVPARFSGSGSRTDFTLTIDPVEADDAATYYCQQNNYDPWTFGGGTKLEIK | binding (CLL-1 bearing a His Tag [1]): binds; binding (CLL-1 bearing a His Tag [2]): binds
 | binds | binds | VH4A+L4D (antibody, V domains shown) VH: EVQLVQSGAEVKKPGASVKMSCKASGYTFTSYFIHWVRQAPGQGLEWIGFINPYNDGSKYAQKFQGRATLTSDKSTSTVYMELSSLRSEDTAVYYCTRDDGYYGYAMDYWGQGTLVTVSS VL: DIQMTQSPSSLSASVGDRVTLTCRATQELSGYLSWLQQKPGKAIKRLIYAASTLDSGVPSRFSGNGAGTDYTLTISSLQPEDFATYYCLQYAIYPYTFGQGTKLEIK | binding [5]: binds
 | binds | binds | chimeric M26 (human constant, mouse variable) (antibody, V domains shown) VH: EVQLQQSGPELVKPGASVKMSCKASGYTFTSYFIHWVKQKPGQGLEWIGFINPYNDGSKYNEKFKGKATLTSDKSSSTAYMELSSLTSEDSAVYYCTRDDGYYGYAMDYWGQGTLVTVSS VL: DIQMTQSPSSLSASLGERVSLTCRATQELSGYLSWLQQKPDGTIKRLIYAASTLDSGVPKRFSGNRSGSDYSLTISSLESEDFADYYCLQYAIYPYTFGGGTKLEIK | binding [5]: binds
